The other results are listed elsewhere or left out. Shown are side measurements of this screen, not its main read-out; they come without a call. Compounds called inactive in the main read-out are mostly missing here. Words in brackets tell the shape of the fitted curve; partial curves, single points and poor fits give uncertain potencies.
Assay: qHTS Assay for Lipid Storage Modulators in Drosophila S3 Cells;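 for cell number change: cells counted by Cell Tracker Red CMTPX staining in the red channel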
Details: BODIPY lipid droplet fluorescence, 18-24 h; for cell number change: measured here: cell count max response, cells fed with added oleic acid
Outline: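 Drosophila S3 cells loaded with oleic acid (400 uM, as added) and compounds at several concentrations; lipid droplets imaged by 488-nm laser-scanning cytometry, 500–530 nm intensity and object ratio to cell channel. Percent activity normalized to 20 uM Triacsin C.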

[1] = measured here: cell number channel AC50, cells fed with added oleic acid
[2] = measured here: lipid fluorescence (Fed channel) AC50, cells fed with added oleic acid

Row | SMILES | cell number change | AC50 [1] | AC50 [2]
1 | O=S(=O)(c1ccc(SCc2ccccc2)nc1)N1CCCC1 | 1.2% |  | 
2 | CCCn1c(NC(=O)c2ccc(F)cc2)nc2ccccc21 | -0.611% | 2.31 µM [rising, single point] | 
3 | CC(=O)Nc1ncc2c(n1)CC(c1ccco1)CC2=O (centres undefined) | 1.6% |  | 2.31 µM [rising, single point]
4 | COc1cccc(C2CCCN2Cc2nc(-c3cnccn3)no2)c1 (centres undefined) | 17.6% |  | 0.184 µM [rising, full curve, poor fit]
5 | NC(=O)c1c(/N=C/c2cccs2)sc2c1CCCC2 | 9.82% |  | 29.1 µM [rising, single point]
6 | Cc1nc2c3ccccc3nc(SCC(=O)N3CC(C)CC(C)C3)n2n1 (centres undefined) | -21% | 2.59 µM [rising, partial curve] | 4.61 µM [rising, partial curve]
7 | COc1cc2c(cc1OC)C1O[C@](CCCCN3C(=O)c4ccccc4C3=O)(C2)Oc2c1c(=O)oc1ccccc21 | -2.47% |  | 2.99 µM [falling, single point]
8 | Cc1cc(C)nc(N/N=C/c2ccccc2Cl)n1 | 21.4% |  | 14.6 µM [rising, partial curve]
9 | COc1cccc(CN2CCC(n3nccc3NC(=O)C3CC3)CC2)c1 | 42.9% | 23.1 µM [rising, single point] | 2.31 µM [rising, full curve, poor fit]
10 | CC(=O)Nc1ccc(S(=O)(=O)N2CCN(C(=O)N3CCCCC3)CC2)cc1 | 24.1% |  | 0.58 µM [falling, single point]
11 | COc1ccc(NS(=O)(=O)c2cc(NC(=O)c3cnc(C)cn3)ccc2N2CCCC2)cc1 | 4.4% |  | 20.6 µM [rising, single point]
12 | O=C(CCCN1C(=O)/C(=C\c2cccs2)SC1=S)Nc1cccc(C(=O)O)c1 | 0.407% | 6.51 µM [falling, single point] | 6.51 µM [falling, single point]
13 | O=C(NO)c1ccccc1C(F)(F)F | -15.6% |  | 29.1 µM [falling, single point]
14 | Cc1cc(C)c(-c2nc3ccccc3s2)[nH]1 | 26.2% |  | 
15 | CCOC(=O)[C@H]1[C@H]2COc3ccc(OC)cc3[C@@H]2N2C(=O)CN(Cc3ccco3)C(=O)[C@@]12C | -9.44% |  | 
16 | Cc1c(C(=O)c2ccccc2C(=O)O)sc2ccccc12 | -11.1% |  | 
17 | CC12CCC(=O)N1C(C(=O)NCCN1C(=O)S/C(=C\c3ccc(OC(F)F)cc3)C1=O)CS2 (centres undefined) | -26.9% |  | 18.4 µM [falling, single point]
18 | Cc1cc(COC(=O)C2N3C(=O)[C@@H](NC(=O)COc4ccccc4)[C@H]3SC2(C)C)on1 (some centres undefined) | 29.4% |  | 
19 | COc1ccc(NC(=O)Nc2cnccn2)c(OC)c1 | 5.49% | 0.092 µM [rising, full curve, poor fit] | 
20 | NCCC1CCCC(CCN)N1 (centres undefined) | -19.9% | 0.731 µM [falling, full curve] | 3.66 µM [falling, single point]

Row | SMILES | cell number change | AC50 [1] | AC50 [2]
21 | CCc1ccc2[nH]c(=O)c(CN(CCN(C)C)C(=O)Nc3ccccc3)cc2c1 |  | 6.51 µM [falling, single point] | 5.8 µM [falling, single point]
22 | O=C(Nc1ccccc1N1CCN(C(=O)c2ccc(Cl)cc2)CC1)c1cc2ccccc2o1 | 159% | 20.6 µM [rising, partial curve] | 0.651 µM [rising, single point]
23 | Cn1c2c(c(=O)n(C)c1=O)C(c1ccc(O)cc1)Nc1ccccc1O2 (centres undefined) |  | 0.82 µM [rising, full curve, poor fit] | 20.6 µM [rising, single point]
24 | Cc1c(C(=O)N/N=C/c2ccc(N3CCOCC3)cc2)nc2ccccn12 | 5.83% |  | 1.46 µM [rising, single point]
25 | CC(=O)NS(=O)(=O)c1ccc(N2C(=O)CC(Sc3nccc(C)n3)C2=O)cc1 (centres undefined) | -4.56% |  | 
26 | CC(=O)Nc1ccc(OCC(O)Cn2ccnc2)cc1 (centres undefined) |  |  | 0.13 µM [rising, full curve]
27 | C/C(=N\NC(=O)c1c(Cl)cnn1C)c1cccnc1 | 0.829% |  | 6.51 µM [falling, single point]
28 | Cn1cccc1/C=N/NC(N)=S | -28.1% | 4.61 µM [falling, full curve, poor fit] | 4.61 µM [falling, full curve, poor fit]
29 | O=C(Nc1ccc(N2CCOCC2)cc1)c1cccc(S(=O)(=O)N2CCC(Cc3ccccc3)CC2)c1 | 44% | 16.4 µM [rising, partial curve] | 20.6 µM [rising, partial curve]
30 | Cc1ccc(N(C(=O)c2snc(C(N)=O)c2N)C(CC(C)C)C(=O)NC2CCCC2)cc1 (centres undefined) | -17.1% | 0.00651 µM [falling, full curve, poor fit] | 
31 | CCCCNc1nnc(SCC(=O)c2c(N)n(CCC)c(=O)[nH]c2=O)s1 | 13.1% |  | 29.1 µM [rising, single point]
32 | c1ccc(C2(CNc3ccccn3)CCCC2)cc1 |  | 4.61 µM [rising, single point] | 
33 | COc1ccc(OCC(=O)Nc2ccc3c(c2)n(C)c(=O)n3C)cc1 | 13.5% |  | 14.6 µM [rising, single point]
34 | CCc1ccc(CNC(=O)Cc2ccc(NC(=O)C3=C(C)OCCS3)cc2)cc1 |  |  | 3.66 µM [rising, partial curve]
35 | COc1cc(C2C(C(=O)c3ccco3)=C(O)C(=O)N2Cc2cccnc2)cc(OC)c1OC (centres undefined) | 11.6% |  | 
36 | Cc1ccc(NC(=O)NC(=O)COc2ccc(Cl)cc2Cl)c(C)c1 | -0.87% |  | 0.164 µM [rising, full curve, poor fit]
37 | CN1c2ccccc2Oc2c(c(=O)n(C)c(=O)n2C)C1c1cccc([N+](=O)[O-])c1 (centres undefined) | 14.7% |  | 
38 | CCOC(=O)c1c(NC(=O)COC(=O)c2nc(Cl)ccc2Cl)sc2c1CCC2 | 19.5% |  | 5.17 µM [rising, full curve, poor fit]
39 | CC(Sc1nnc(-c2ccco2)n1-c1ccccc1)C(=O)NCC1CCCO1 (centres undefined) | -31.4% | 14.6 µM [falling, partial curve, poor fit] | 20.6 µM [falling, single point]
40 | Cc1ccc(S(=O)(=O)NC(=O)COc2ccccc2C(N)=O)cc1 | -25.9% |  | 

Looked up by structure from the entries so far (4):
Row | SMILES | cell number change | AC50 [1] | AC50 [2]
13 | O=C(NO)c1ccccc1C(F)(F)F | -15.6% |  | 29.1 µM [falling, single point]
29 | O=C(Nc1ccc(N2CCOCC2)cc1)c1cccc(S(=O)(=O)N2CCC(Cc3ccccc3)CC2)c1 | 44% | 16.4 µM [rising, partial curve] | 20.6 µM [rising, partial curve]
35 | COc1cc(C2C(C(=O)c3ccco3)=C(O)C(=O)N2Cc2cccnc2)cc(OC)c1OC (centres undefined) | 11.6% |  | 
39 | CC(Sc1nnc(-c2ccco2)n1-c1ccccc1)C(=O)NCC1CCCO1 (centres undefined) | -31.4% | 14.6 µM [falling, partial curve, poor fit] | 20.6 µM [falling, single point]

Remaining list, next part.

Row | SMILES | cell number change | AC50 [1] | AC50 [2]
41 | CC(C)(C)NC(=O)C(Cc1ccccc1)NS(=O)(=O)c1cccc2nsnc12 (centres undefined) | -121% | 29.1 µM [falling, partial curve] | 0.411 µM [falling, partial curve, poor fit]
42 | Cn1c2c(c(=O)n(C)c1=O)C(c1ccccc1Cl)CC(=O)N2 (centres undefined) | -43.9% | 23.1 µM [falling, single point] | 0.82 µM [falling, full curve]
43 | O=C(NC1CCCCCC1)C(=S)NCCc1ccccc1 | 2.02% |  | 
44 | Cc1ccc(NC(=O)CCS(=O)(=O)c2ccc(Br)s2)cc1 |  |  | 6.51 µM [rising, single point]
45 | COC(=O)CCCC1=CC2=C(c3ccccc3)C(=O)C(C)(OC(=O)C3CCCC3)C(=O)C2=CN1CC(C)C (centres undefined) | -16.4% |  | 16.4 µM [falling, single point]
46 | CCOC(=O)C1CCN(C(=O)CN(c2cccc(OC)c2)S(=O)(=O)c2ccccc2)CC1 | 9.12% |  | 
47 | Nc1nc(NC(=O)/C=C/c2ccccc2)nn1-c1ccccc1 | 19.6% |  | 0.13 µM [rising, full curve, poor fit]
48 | O=C(NCc1ccncc1)C1CCCN(S(=O)(=O)c2ccc(Br)cc2)C1 (centres undefined) |  |  | 29.1 µM [rising, single point]
49 | COc1ccc2c(c1)c(=O)c(C(=O)c1ccccc1)cn2Cc1ccc(C)cc1 | 24.4% |  | 1.64 µM [rising, partial curve]
50 | NNC(=O)c1ccc(COc2cccc3cccnc23)cc1 | 6.64% |  | 
51 | Cc1ccccc1OCCNC(=O)/C=C/c1ccccc1 | 42.9% | 18.4 µM [rising, single point] | 13 µM [rising, partial curve]
52 | CC(=O)c1cccc(NC(=O)CN2C(=O)NC3(CCCCCCC3)C2=O)c1 | -17.3% |  | 
53 | COc1ccc(C(=O)NC(=S)Nc2ccccc2N2CCOCC2)cc1[N+](=O)[O-] |  |  | 0.146 µM [rising, partial curve, poor fit]
54 | O=C1CCC2(C(=O)O)Sc3ccccc3N12 (centres undefined) | -57.2% | 0.103 µM [falling, full curve, poor fit] | 
55 | O=C(CP(=O)(c1ccccc1)c1ccccc1)Nc1nc2ccc(Cl)cc2s1 |  |  | 5.8 µM [rising, single point]
56 | O=C(Nc1ccc(Br)cc1)C1C2C=CC3(O2)C1C(=O)N(CCN1CCCCC1)C3C(=O)NC1CCCCC1 (centres undefined) | -6.05% |  | 4.11 µM [falling, single point]
57 | COc1ccc(-c2cc(C(=O)NCC3CCCO3)c3cc(C(C)C)ccc3n2)cc1 (centres undefined) | -3.79% | 0.058 µM [rising, partial curve] | 11.6 µM [falling, single point]
58 | CC(C)CN(C(=O)COC(=O)c1ccc(Cl)c(N)c1)c1c(N)n(Cc2ccccc2)c(=O)[nH]c1=O | -36.9% | 29.1 µM [falling, single point] | 29.1 µM [falling, single point]
59 | CCCN(CCC)CCNC(=O)c1cc2c(C)nc3ccccc3c2o1 | -11% |  | 0.82 µM [rising, full curve]
60 | O=C(CCCC(=O)OCC(F)(F)C(F)F)Nc1nccs1 | -35.9% | 0.00461 µM [falling, full curve, poor fit] | 4.11 µM [falling, full curve]

Source: PubChem BioAssay AID2685 (National Center for Advancing Translational Sciences (NCATS), 2010)
